Data as given in the supplement of paper PMC12823440, “Inhibitors supercharge kinase turnover through native proteolytic circuits” (Nature, 2025).
Structures can show the parent of a compound that is named as a salt. The list shows a part of the results. Hit calls seldom repeat between salt and free forms of one compound.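 Kinases, fused to nanoluciferase, were expressed in K562 cells; luminescence was measured every 4 h from 2 to 18 h as percent of control (DMSO = 100%, positive control = 0%). A time point is decreased if signal falls significantly (2 sigma). Hits were called by the authors by a rule that is not shown; the count of time points alone does not decide it.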

Chains of the proteins cited; added tags and fusions are not shown. Lines headed by an entry give the natural chain unless they say otherwise; changes in a name come on top.
UniProt O75460: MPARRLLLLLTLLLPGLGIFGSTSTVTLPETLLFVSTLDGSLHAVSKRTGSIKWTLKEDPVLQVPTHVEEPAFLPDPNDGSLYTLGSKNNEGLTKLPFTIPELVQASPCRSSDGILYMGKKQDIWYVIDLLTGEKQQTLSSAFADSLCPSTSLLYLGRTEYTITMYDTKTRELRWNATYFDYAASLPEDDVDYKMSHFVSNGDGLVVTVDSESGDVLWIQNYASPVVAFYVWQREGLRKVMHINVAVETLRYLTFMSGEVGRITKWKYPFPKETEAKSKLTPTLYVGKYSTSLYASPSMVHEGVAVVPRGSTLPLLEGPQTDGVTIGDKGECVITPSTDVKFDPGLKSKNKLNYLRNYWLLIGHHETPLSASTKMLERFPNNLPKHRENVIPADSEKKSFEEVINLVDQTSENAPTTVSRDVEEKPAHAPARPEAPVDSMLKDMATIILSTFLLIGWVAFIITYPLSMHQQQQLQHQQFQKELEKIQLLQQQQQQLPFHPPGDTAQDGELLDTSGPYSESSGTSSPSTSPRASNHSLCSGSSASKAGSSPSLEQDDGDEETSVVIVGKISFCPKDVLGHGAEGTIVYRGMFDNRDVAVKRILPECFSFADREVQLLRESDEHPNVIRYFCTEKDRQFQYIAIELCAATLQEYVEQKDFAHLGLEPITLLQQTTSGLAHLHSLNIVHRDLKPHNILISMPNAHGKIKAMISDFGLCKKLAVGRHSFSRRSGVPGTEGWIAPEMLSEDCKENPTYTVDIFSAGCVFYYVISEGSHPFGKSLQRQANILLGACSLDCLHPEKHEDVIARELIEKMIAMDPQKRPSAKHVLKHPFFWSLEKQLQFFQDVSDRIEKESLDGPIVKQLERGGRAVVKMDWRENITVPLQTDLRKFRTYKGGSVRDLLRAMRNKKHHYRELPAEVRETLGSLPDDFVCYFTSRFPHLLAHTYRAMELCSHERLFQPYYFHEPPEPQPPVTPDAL
UniProt P11362, whole entry, looked up: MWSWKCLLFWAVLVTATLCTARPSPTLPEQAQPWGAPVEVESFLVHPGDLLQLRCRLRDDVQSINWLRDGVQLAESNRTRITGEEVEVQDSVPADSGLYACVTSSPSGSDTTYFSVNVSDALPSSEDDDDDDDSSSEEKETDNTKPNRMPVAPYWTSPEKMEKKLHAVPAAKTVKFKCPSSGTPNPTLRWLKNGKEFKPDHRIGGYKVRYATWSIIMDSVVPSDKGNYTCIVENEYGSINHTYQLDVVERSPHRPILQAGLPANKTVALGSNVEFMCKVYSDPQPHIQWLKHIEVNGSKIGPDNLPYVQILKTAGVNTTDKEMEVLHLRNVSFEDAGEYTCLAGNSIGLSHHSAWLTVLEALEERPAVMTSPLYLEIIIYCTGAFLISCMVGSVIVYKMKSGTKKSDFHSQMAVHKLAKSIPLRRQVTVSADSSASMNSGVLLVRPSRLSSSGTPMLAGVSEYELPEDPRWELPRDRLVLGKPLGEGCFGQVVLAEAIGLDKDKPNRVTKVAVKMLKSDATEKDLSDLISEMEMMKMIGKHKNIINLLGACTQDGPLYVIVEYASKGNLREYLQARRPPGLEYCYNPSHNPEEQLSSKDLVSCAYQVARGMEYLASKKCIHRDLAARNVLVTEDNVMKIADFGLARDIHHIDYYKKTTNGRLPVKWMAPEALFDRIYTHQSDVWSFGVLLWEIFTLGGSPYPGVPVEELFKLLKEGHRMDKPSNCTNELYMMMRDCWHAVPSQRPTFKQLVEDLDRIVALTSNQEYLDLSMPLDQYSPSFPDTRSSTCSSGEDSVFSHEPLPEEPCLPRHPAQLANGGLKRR
UniProt P21802, whole entry, looked up: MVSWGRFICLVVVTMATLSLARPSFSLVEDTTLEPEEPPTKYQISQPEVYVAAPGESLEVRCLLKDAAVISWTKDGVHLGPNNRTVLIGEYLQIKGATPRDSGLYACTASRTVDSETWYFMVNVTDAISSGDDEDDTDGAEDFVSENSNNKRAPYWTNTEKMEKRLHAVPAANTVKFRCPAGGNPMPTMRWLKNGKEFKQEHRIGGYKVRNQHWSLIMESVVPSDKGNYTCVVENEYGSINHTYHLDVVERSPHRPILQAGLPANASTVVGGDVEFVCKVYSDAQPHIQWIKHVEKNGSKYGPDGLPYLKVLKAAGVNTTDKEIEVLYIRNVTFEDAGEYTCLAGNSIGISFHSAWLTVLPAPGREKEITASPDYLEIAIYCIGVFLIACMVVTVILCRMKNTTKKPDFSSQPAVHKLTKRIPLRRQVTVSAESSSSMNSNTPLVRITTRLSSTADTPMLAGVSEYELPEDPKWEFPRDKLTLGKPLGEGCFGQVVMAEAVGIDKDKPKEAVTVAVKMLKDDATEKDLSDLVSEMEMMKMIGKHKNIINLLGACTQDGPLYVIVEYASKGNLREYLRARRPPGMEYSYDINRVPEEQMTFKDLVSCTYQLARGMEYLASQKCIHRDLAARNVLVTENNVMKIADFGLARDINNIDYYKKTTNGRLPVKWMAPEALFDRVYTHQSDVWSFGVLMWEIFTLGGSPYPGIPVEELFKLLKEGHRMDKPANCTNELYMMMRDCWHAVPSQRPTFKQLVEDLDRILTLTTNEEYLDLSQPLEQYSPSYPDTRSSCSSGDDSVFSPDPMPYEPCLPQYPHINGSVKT
UniProt P36888, whole entry: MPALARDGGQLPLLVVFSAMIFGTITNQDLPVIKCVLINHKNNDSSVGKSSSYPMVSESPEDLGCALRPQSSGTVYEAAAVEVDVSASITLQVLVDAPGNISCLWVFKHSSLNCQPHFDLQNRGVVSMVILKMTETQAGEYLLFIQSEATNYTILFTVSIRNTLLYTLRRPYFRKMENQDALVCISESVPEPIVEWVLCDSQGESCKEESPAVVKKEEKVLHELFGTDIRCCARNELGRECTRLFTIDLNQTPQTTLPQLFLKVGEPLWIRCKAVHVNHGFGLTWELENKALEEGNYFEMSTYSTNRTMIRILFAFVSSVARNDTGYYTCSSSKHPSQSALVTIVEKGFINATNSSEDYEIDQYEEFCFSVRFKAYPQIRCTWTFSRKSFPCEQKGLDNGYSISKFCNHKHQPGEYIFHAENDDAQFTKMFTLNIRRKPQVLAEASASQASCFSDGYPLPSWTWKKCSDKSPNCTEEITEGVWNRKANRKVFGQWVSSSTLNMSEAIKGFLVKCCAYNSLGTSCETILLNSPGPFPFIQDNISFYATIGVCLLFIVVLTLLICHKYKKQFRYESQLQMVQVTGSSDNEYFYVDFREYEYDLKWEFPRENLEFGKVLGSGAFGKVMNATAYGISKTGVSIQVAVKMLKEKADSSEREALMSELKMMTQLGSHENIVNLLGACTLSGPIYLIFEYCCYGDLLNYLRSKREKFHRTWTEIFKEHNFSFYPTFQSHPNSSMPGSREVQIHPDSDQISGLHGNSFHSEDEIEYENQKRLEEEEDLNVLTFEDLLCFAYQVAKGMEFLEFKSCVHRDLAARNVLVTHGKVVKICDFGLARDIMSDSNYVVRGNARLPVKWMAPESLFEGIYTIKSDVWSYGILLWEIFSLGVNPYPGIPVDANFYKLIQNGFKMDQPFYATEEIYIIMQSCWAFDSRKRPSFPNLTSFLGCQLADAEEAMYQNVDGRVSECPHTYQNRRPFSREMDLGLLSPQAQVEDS
UniProt P06241, whole entry, looked up: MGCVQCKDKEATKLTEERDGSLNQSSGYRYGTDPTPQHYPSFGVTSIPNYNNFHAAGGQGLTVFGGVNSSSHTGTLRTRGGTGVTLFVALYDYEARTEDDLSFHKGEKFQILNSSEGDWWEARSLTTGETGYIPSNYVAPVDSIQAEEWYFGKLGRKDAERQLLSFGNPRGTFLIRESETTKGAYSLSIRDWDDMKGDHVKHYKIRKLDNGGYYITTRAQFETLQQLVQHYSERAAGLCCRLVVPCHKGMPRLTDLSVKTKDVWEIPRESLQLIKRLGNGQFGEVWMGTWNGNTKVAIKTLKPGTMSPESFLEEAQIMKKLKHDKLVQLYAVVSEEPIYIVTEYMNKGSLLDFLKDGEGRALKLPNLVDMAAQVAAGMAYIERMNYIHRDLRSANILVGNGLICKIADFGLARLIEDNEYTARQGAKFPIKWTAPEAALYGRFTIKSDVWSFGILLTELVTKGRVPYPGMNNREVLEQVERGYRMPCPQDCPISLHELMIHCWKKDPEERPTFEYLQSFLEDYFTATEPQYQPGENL
UniProt P49840: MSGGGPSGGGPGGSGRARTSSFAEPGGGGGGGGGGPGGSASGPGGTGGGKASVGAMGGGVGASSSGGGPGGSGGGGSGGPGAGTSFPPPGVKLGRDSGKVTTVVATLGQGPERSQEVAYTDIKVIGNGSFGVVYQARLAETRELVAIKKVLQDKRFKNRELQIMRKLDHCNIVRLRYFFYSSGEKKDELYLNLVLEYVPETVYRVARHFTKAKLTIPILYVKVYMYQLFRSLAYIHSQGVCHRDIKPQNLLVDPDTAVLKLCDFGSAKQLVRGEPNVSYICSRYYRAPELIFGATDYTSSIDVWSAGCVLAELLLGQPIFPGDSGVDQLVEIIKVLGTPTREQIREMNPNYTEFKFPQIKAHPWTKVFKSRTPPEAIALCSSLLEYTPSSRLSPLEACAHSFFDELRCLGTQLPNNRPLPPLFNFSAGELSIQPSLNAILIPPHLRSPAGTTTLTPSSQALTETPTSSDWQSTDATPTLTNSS
UniProt P14616: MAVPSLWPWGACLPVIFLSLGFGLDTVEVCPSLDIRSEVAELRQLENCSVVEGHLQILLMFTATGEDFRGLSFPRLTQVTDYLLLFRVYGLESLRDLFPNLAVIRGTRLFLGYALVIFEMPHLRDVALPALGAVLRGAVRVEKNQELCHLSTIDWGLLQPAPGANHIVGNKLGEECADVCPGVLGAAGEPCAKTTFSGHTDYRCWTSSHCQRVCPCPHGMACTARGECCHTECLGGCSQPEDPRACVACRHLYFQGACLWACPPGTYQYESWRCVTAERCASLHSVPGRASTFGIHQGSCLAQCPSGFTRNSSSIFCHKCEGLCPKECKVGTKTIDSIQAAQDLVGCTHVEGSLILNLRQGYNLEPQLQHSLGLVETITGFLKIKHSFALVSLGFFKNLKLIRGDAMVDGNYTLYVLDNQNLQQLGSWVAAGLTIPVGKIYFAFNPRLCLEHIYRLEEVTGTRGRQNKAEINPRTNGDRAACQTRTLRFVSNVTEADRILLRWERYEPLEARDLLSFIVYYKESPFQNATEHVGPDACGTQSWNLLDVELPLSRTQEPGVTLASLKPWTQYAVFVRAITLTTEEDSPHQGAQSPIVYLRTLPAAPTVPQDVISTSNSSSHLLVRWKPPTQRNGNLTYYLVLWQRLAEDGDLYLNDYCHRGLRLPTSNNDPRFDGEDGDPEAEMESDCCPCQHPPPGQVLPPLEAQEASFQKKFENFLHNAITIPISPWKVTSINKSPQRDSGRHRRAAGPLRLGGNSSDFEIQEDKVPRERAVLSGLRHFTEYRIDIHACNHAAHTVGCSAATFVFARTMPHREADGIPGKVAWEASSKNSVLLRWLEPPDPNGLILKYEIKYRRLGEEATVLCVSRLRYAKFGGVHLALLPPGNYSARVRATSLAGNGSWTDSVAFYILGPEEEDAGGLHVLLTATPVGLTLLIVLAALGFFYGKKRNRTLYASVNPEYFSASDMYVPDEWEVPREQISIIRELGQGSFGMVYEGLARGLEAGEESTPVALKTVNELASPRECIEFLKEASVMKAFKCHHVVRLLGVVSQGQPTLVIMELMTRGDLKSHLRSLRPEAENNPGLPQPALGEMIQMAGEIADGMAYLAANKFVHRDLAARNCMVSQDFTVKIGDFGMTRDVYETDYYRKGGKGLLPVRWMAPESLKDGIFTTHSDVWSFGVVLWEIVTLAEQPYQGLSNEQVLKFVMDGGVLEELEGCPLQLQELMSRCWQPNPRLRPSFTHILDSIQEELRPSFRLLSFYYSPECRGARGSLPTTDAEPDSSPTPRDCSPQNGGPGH

Legend:
Assay in all cases: kinase-Nluc reporter destabilization hit call (1 = scored as downregulated) (binary); higher = compound decreases kinase abundance
Conditions in all cases: K562; 2-18 h
ERN1 = ERN1 (UniProt O75460)
FGFR1 = FGFR1 (UniProt P11362)
FGFR2 = FGFR2 (UniProt P21802)
FGFR3 = FGFR3 (UniProt P22607)
FGR = FGR (UniProt P09769)
FLT3 = FLT3 (UniProt P36888)
FYN = FYN (UniProt P06241)
GSK3A = GSK3A (UniProt P49840)
HER2 = HER2 (UniProt P04626)
INSRR = INSRR (UniProt P14616)

Measured: kinase-Nluc reporter destabilization hit call

C[C@@H]1CCc2ncc(F)cc2[C@H]2CCCN2c2ccn3ncc(c3n2)C(=O)N1 [Selitrectinib] (10 µM)
inactive: ERN1 = 0 | FGFR1 = 0 | FGFR2 = 0 | FGFR3 = 0 | FGR 0 | FLT3 = 0 | FYN 0 | GSK3A 0 | HER2 = 0 | INSRR 0

Cn1cc(-c2cc3c(N4CCN(c5ncc([C@@](C)(N)c6ccc(F)cc6)cn5)CC4)ncnn3c2)cn1 [Avapritinib] (2.5 µM)
inactive: ERN1 = 0 | FGFR1 = 0 | FGFR2 = 0 | FGFR3 = 0 | FGR 0 | FLT3 = 0 | FYN 0 | GSK3A 0 | HER2 = 0 | INSRR 0

CN(CC(=O)N(Cc1ccc(C2CCCCC2)cc1)c1ccc(C(=O)O)c(O)c1)S(=O)(=O)c1c(F)c(F)c(F)c(F)c1F (2.5 µM)
inactive: ERN1 = 0 | FGFR1 = 0 | FGFR2 = 0 | FGFR3 = 0 | FGR 0 | FLT3 = 0 | FYN 0 | GSK3A 0 | HER2 = 0 | INSRR 0

COc1c(O)cc2oc3cc(O)c(CC=C(C)C)c(O)c3c(=O)c2c1CCC(C)(C)O [Garcinone D] (2.5 µM)
inactive: ERN1 = 0 | FGFR1 = 0 | FGFR2 = 0 | FGFR3 = 0 | FGR 0 | FLT3 = 0 | FYN 0 | GSK3A 0 | HER2 = 0 | INSRR 0

CCCC(=O)Nc1nc2c(ncn2[C@@H]2O[C@@H]3COP(=O)(O)O[C@H]3[C@H]2OC(=O)CCC)c(=O)[nH]1 [Dibutyryl-cGMP (sodium)] (10 µM)
inactive: ERN1 = 0 | FGFR1 = 0 | FGFR2 = 0 | FGFR3 = 0 | FGR 0 | FLT3 = 0 | FYN 0 | GSK3A 0 | HER2 = 0 | INSRR 0

CC(C)C[C@H](NC(=O)[C@H](CCCCN)NC(=O)[C@H](CO)NC(=O)[C@@H](N)CC(C)C)C(N)=O [LSKL, Inhibitor of Thrombospondin (TSP-1) (TFA)] (10 µM)
inactive: ERN1 = 0 | FGFR1 = 0 | FGFR2 = 0 | FGFR3 = 0 | FGR 0 | FLT3 = 0 | FYN 0 | GSK3A 0 | HER2 = 0 | INSRR 0

O=C1NC(=O)C(c2cnc3ccccn23)=C1c1cn2c3c(cc(F)cc13)CN(C(=O)N1CCCCC1)CC2 (2.5 µM)
inactive: ERN1 = 0 | FGFR1 = 0 | FGFR2 = 0 | FGFR3 = 0 | FGR 0 | FLT3 = 0 | FYN 0 | GSK3A 0 | HER2 = 0 | INSRR 0

c1ccc(-c2oc3ncnc(NC[C@@H]4CCCO4)c3c2-c2ccccc2)cc1 (2.5 µM)
inactive: ERN1 = 0 | FGFR1 = 0 | FGFR2 = 0 | FGFR3 = 0 | FGR 0 | FLT3 = 0 | FYN 0 | GSK3A 0 | HER2 = 0 | INSRR 0

Cc1cc2cc(Oc3ccnc(Nc4cccc(CS(=O)(=O)NCCN(C)C)c4)n3)ccc2[nH]1 [Sulfatinib] (10 µM)
inactive: ERN1 = 0 | FGFR1 = 0 | FGFR2 = 0 | FGFR3 = 0 | FGR 0 | FLT3 = 0 | FYN 0 | GSK3A 0 | HER2 = 0 | INSRR 0

NC(=O)c1ccc(-c2cnn3ccc(NCc4cccnc4)nc23)cc1 (2.5 µM)
inactive: ERN1 = 0 | FGFR1 = 0 | FGFR2 = 0 | FGFR3 = 0 | FGR 0 | FLT3 = 0 | FYN 0 | GSK3A 0 | HER2 = 0 | INSRR 0

C=CS(=O)(=O)c1ccc(Nc2nc(OCC3CCCCC3)c3[nH]cnc3n2)cc1 (2.5 µM)
inactive: ERN1 = 0 | FGFR1 = 0 | FGFR2 = 0 | FGFR3 = 0 | FGR 0 | FLT3 = 0 | FYN 0 | GSK3A 0 | HER2 = 0 | INSRR 0

CC1=C(CC(=O)O)c2cc(F)ccc2/C1=C\c1ccc(C(C)C)cc1 (10 µM)
inactive: ERN1 = 0 | FGFR1 = 0 | FGFR2 = 0 | FGFR3 = 0 | FGR 0 | FLT3 = 0 | FYN 0 | GSK3A 0 | HER2 = 0 | INSRR 0

CC1=C(C(=O)Nc2ccc3[nH]ncc3c2)C(c2ccc(F)cc2)NC(=O)N1 (stereo not given) (10 µM)
inactive: ERN1 = 0 | FGFR1 = 0 | FGFR2 = 0 | FGFR3 = 0 | FGR 0 | FLT3 = 0 | FYN 0 | GSK3A 0 | HER2 = 0 | INSRR 0

c1ccc(-c2nn3c(c2-c2ccnc4cc(OCCN5CCOCC5)ccc24)CCC3)nc1 (10 µM)
inactive: ERN1 = 0 | FGFR1 = 0 | FGFR2 = 0 | FGFR3 = 0 | FGR 0 | FLT3 = 0 | FYN 0 | GSK3A 0 | HER2 = 0 | INSRR 0

Cc1cccc(-c2[nH]ncc2-c2ccc3ncccc3n2)n1 (10 µM)
inactive: ERN1 = 0 | FGFR1 = 0 | FGFR2 = 0 | FGFR3 = 0 | FGR 0 | FLT3 = 0 | FYN 0 | GSK3A 0 | HER2 = 0 | INSRR 0

CC[C@H](Nc1ncnc2[nH]cnc12)c1oc2ccccc2c(=O)c1-c1cccc(F)c1 [Tenalisib] (10 µM)
inactive: ERN1 = 0 | FGFR1 = 0 | FGFR2 = 0 | FGFR3 = 0 | FGR 0 | FLT3 = 0 | FYN 0 | GSK3A 0 | HER2 = 0 | INSRR 0

CN(C)c1ncnc2nc[nH]c12 [6-(Dimethylamino)purine] (10 µM)
inactive: ERN1 = 0 | FGFR1 = 0 | FGFR2 = 0 | FGFR3 = 0 | FGR 0 | FLT3 = 0 | FYN 0 | GSK3A 0 | HER2 = 0 | INSRR 0

C=C[C@H]1[C@H](O[C@@H]2O[C@H](CO)[C@@H](O)[C@H](O)[C@H]2OC(=O)c2c(O)cc(O)cc2-c2cccc(O)c2)OC=C2C(=O)OCC[C@H]21 [Amarogentin] (10 µM)
inactive: ERN1 = 0 | FGFR1 = 0 | FGFR2 = 0 | FGFR3 = 0 | FGR 0 | FLT3 = 0 | FYN 0 | GSK3A 0 | HER2 = 0 | INSRR 0

CCN1/C(=C/C(C)=O)Sc2ccc(OC)cc21 (10 µM)
inactive: ERN1 = 0 | FGFR1 = 0 | FGFR2 = 0 | FGFR3 = 0 | FGR 0 | FLT3 = 0 | FYN 0 | GSK3A 0 | HER2 = 0 | INSRR 0

O=C1NC(=O)C(=Cc2ccc3c(c2)OCO3)S1 (10 µM)
inactive: ERN1 = 0 | FGFR1 = 0 | FGFR2 = 0 | FGFR3 = 0 | FGR 0 | FLT3 = 0 | FYN 0 | GSK3A 0 | HER2 = 0 | INSRR 0

COc1nc(-c2cccc3c2OCCO3)ccc1Nc1ccc(CN(C)C)cc1 [RAS inhibitor Abd-7] (10 µM)
inactive: ERN1 = 0 | FGFR1 = 0 | FGFR2 = 0 | FGFR3 = 0 | FGR 0 | FLT3 = 0 | FYN 0 | GSK3A 0 | HER2 = 0 | INSRR 0

C[C@@H]1COCCN1c1cc(=O)n2c(n1)N(Cc1cncc(Cl)c1)[C@H](C(F)(F)F)CC2 (10 µM)
inactive: ERN1 = 0 | FGFR1 = 0 | FGFR2 = 0 | FGFR3 = 0 | FGR 0 | FLT3 = 0 | FYN 0 | GSK3A 0 | HER2 = 0 | INSRR 0

Cc1nc(NC(=O)NCCc2nnn(CCF)n2)sc1-c1ccc(S(C)(=O)=O)c(F)c1 (10 µM)
inactive: ERN1 = 0 | FGFR1 = 0 | FGFR2 = 0 | FGFR3 = 0 | FGR 0 | FLT3 = 0 | FYN 0 | GSK3A 0 | HER2 = 0 | INSRR 0

Cc1ccc(-c2ncn(-c3ccc(Nc4nccc(-c5cccc(N6CCOCC6)c5)n4)cc3)n2)cn1 (10 µM)
inactive: ERN1 = 0 | FGFR1 = 0 | FGFR2 = 0 | FGFR3 = 0 | FGR 0 | FLT3 = 0 | FYN 0 | GSK3A 0 | HER2 = 0 | INSRR 0

O=c1cc(-c2ccc(O)c(O)c2O)oc2ccccc12 (10 µM)
inactive: ERN1 = 0 | FGFR1 = 0 | FGFR2 = 0 | FGFR3 = 0 | FGR 0 | FLT3 = 0 | FYN 0 | GSK3A 0 | HER2 = 0 | INSRR 0

Nc1cccc(S(=O)(=O)N2CCCN(S(=O)(=O)c3ccc4c(c3)OCCO4)CC2)c1 (10 µM)
inactive: ERN1 = 0 | FGFR1 = 0 | FGFR2 = 0 | FGFR3 = 0 | FGR 0 | FLT3 = 0 | FYN 0 | GSK3A 0 | HER2 = 0 | INSRR 0

C[C@@H]1O[C@@H](OC[C@H]2O[C@@H](Oc3cc(O)c4c(c3)O[C@H](c3ccc(O)cc3)CC4=O)[C@H](O)[C@@H](O)[C@@H]2O)[C@H](O)[C@H](O)[C@H]1O [Narirutin] (10 µM)
inactive: ERN1 = 0 | FGFR1 = 0 | FGFR2 = 0 | FGFR3 = 0 | FGR 0 | FLT3 = 0 | FYN 0 | GSK3A 0 | HER2 = 0 | INSRR 0

COc1cc2ncnc(Nc3ccc(NC(=O)c4ccccc4)cc3)c2cc1OC [Aurora kinase inhibitor-2] (2.5 µM)
inactive: ERN1 = 0 | FGFR1 = 0 | FGFR2 = 0 | FGFR3 = 0 | FGR 0 | FLT3 = 0 | FYN 0 | GSK3A 0 | HER2 = 0 | INSRR 0

Ordered by formula weight (high to low): some entries from above.
C[C@@H]1O[C@@H](OC[C@H]2O[C@@H](Oc3cc(O)c4c(c3)O[C@H](c3ccc(O)cc3)CC4=O)[C@H](O)[C@@H](O)[C@@H]2O)[C@H](O)[C@H](O)[C@H]1O [Narirutin] (10 µM)
inactive: ERN1 = 0 | FGFR1 = 0 | FGFR2 = 0 | FGFR3 = 0 | FGR 0 | FLT3 = 0 | FYN 0 | GSK3A 0 | HER2 = 0 | INSRR 0

Cc1ccc(-c2ncn(-c3ccc(Nc4nccc(-c5cccc(N6CCOCC6)c5)n4)cc3)n2)cn1 (10 µM)
inactive: ERN1 = 0 | FGFR1 = 0 | FGFR2 = 0 | FGFR3 = 0 | FGR 0 | FLT3 = 0 | FYN 0 | GSK3A 0 | HER2 = 0 | INSRR 0

Nc1cccc(S(=O)(=O)N2CCCN(S(=O)(=O)c3ccc4c(c3)OCCO4)CC2)c1 (10 µM)
inactive: ERN1 = 0 | FGFR1 = 0 | FGFR2 = 0 | FGFR3 = 0 | FGR 0 | FLT3 = 0 | FYN 0 | GSK3A 0 | HER2 = 0 | INSRR 0

Following part:

O=C(Nc1ccc(Cl)cc1)C1CCCN(C(=O)c2cccc(-c3ccco3)c2)C1 (stereo not given) (2.5 µM)
inactive: ERN1 = 0 | FGFR1 = 0 | FGFR2 = 0 | FGFR3 = 0 | FGR 0 | FLT3 = 0 | FYN 0 | GSK3A 0 | HER2 = 0 | INSRR 0
